From PubChem BioAssay AID1688 (National Center for Advancing Translational Sciences (NCATS), 2009)
The campaign covered roughly 220,000 compounds. About 2,400 (1.1%) were called active. The inconclusive results got no clear call from the source; some entries with a clear call stand among them for comparison. Calls follow the shape of the dose curve; as a rule, active = well fitted inhibition curve with a large enough effect; inconclusive = small, poorly fitted or top-dose-only effect, or effect the other way; inactive = no such curve, though single readings can be large or run the other way. Where the call is inconclusive, the potency comes from a doubtful curve fit.

Experiment: qHTS Multiplex Assay to Identify Dual Action Probes in a Cell Model of Huntington: Aggregate Formation (GFP); also: nearly all actives have a fitted effect of over 60% in size
Conditions: PC12 HttQ103-GFP aggregates, Acumen cytometry, 40 h; activity change, negative = inhibition: at 46.1 µM (top of the series) unless noted
Summary of the method: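 Multiplexed with ATP-based cell death, this channel scores GFP aggregates in PC12 cells expressing inducible HTTex1-Q103-GFP. Induction used 100 nM tebufenozide; compounds were tested in concentration series.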
% is scaled to controls: 0 for no effect and ±100 for the full control effect; potency is read from the fitted curve at half-maximal effect.

| Structure (SMILES) | Potency | activity change, negative = inhibition |
| --- | --- | --- |
| Cc1cc(C)cc(N(CC(=O)N2CCN(c3ccccc3)CC2)S(=O)(=O)c2c(C)noc2C)c1 | inconclusive: 7.94 µM [inhibitor, partial curve] |  |
| Cc1ccc(NC(=S)NC(NC(=O)c2ccco2)C(Cl)(Cl)Cl)cc1 (centres undefined) | inactive |  |
| CC1(C)CC(=O)/C(=C\c2cccc([N+](=O)[O-])c2)C(C)(C)N1 | inconclusive: 35.5 µM [inhibitor, single point] |  |
| N#Cc1cc2c(nc1SCC(O)CS(=O)(=O)Cc1ccc(Cl)cc1)CCCC2 (centres undefined) | inconclusive: 17.8 µM [inhibitor, single point] |  |
| CCN(CC)C(=O)c1sc(NC(=O)c2ccc(Br)o2)c(C(=O)OC)c1C | inactive |  |
| CCOc1cc(S(=O)(=O)NCCc2cccc(C)c2)c(OCC)cc1-n1cnnn1 | inconclusive: 7.94 µM [activator, partial curve] |  |
| COCCOc1cc(Nc2nnc(C(F)(F)F)s2)c(Cl)cc1Cl | inconclusive: 3.55 µM [inhibitor, single point] |  |
| C=CCNC(=O)c1onc(CSc2ccc(F)cc2)c1C(=O)NCCOC | inactive |  |
| CC(C)N(c1ccccc1)c1ccc(NC(=O)CCl)cc1 | inconclusive: 35.5 µM [inhibitor, single point] |  |
| Cc1ncc(N=Nc2ccc(F)cc2)c(-c2ccc(Cl)cc2)n1 | inactive |  |
| COc1cc(C=O)ccc1OCCSc1ccc(C)cc1 | inactive |  |
| Cc1ccc(NC(=O)OCc2cc(-c3ccccc3)on2)cc1 |  | inactive: 13.3% [at 9.22 µM] |
| COc1ccc(C(NC(=O)C2CCCCC2)c2c(O)ccc3ccccc23)cc1 (centres undefined) | inconclusive: 22.4 µM [inhibitor, single point] |  |
| c1ccc2c(c1)CC1(CCCCC1)n1nnnc1-2 | inconclusive: 15.8 µM [inhibitor, single point] |  |
| CCOC(=O)c1cnc(-n2nc(C)cc2C)nc1NCCc1ccccc1 | active: 12.6 µM |  |
| S=C(NCCC(c1ccccc1)c1ccccc1)Nc1ccc(Cl)cc1 | inconclusive: 35.5 µM [inhibitor, single point] |  |
| Cc1ccc(-n2c(=O)[nH]c3c(oc4ccccc43)c2=O)cc1 | inconclusive: 35.5 µM [inhibitor, single point] |  |
| CC1(C)CC(=O)c2sc(NS(=O)(=O)c3ccc(F)cc3)nc2C1 |  | inactive: 12.2% [at 9.22 µM] |
| COc1cccc(NC(=S)NNC(=O)c2ccccc2OC(F)F)c1 | inconclusive: 0.562 µM [inhibitor, full curve, poor fit] |  |
| c1cc(Nc2ncnc3sccc23)cc(-c2nnc3n2CCCCC3)c1 | inconclusive: 1.12 µM [inhibitor, partial curve] |  |
| CSc1nc2ccc(S(=O)(=O)N3CCOCC3)cc2s1 | inactive |  |
| COc1ccccc1C1CC(c2ccc(C)cc2)Nc2ncnn21 (centres undefined) | inactive |  |
| NC(=O)CN(N=Nc1cccc([N+](=O)[O-])c1)c1cccc([N+](=O)[O-])c1 | inactive |  |

| Structure (SMILES) | Potency | activity change, negative = inhibition |
| --- | --- | --- |
| [O-][n+]1cccc2c(Br)cc(Br)c(O)c21 | inconclusive: 35.5 µM [inhibitor, single point] |  |
| CCOC(=O)N1CCN(c2cc(C)c(C(C)=O)cc2F)CC1 | inconclusive: 35.5 µM [inhibitor, single point] |  |
| CCc1nc(C)cn1S(=O)(=O)c1cc(Br)c(C)cc1OC | inconclusive: 0.891 µM [activator, single point] |  |
| O=C(CN1C(=O)S/C(=C/c2cccnc2)C1=O)N1CCOCC1 | inconclusive: 17.8 µM [activator, partial curve, poor fit] |  |
| CC(=O)c1sc(NC(=O)CCOc2ccccc2)nc1C | inactive |  |
| CC(=O)N(c1ccc(C)cc1)C1C=CS(=O)(=O)C1 (centres undefined) | inconclusive: 2.51 µM [activator, full curve, poor fit] |  |
| Cn1ncc2c(O/N=C(\N)c3ccc(C(C)(C)C)cc3)ncnc21 | inconclusive: 3.98 µM [inhibitor, single point] |  |
| O=C(Nc1ccc(OC(=O)c2cccnc2)cc1)c1cccnc1 | inactive |  |
| CCOC(=O)CC(=O)CSc1nc(C)cc(C)c1C#N | inconclusive: 6.31 µM [inhibitor, partial curve] |  |
| Oc1c(C(Nc2cccc(C(F)(F)F)c2)c2cccnc2)ccc2cccnc12 (centres undefined) | inconclusive: 35.5 µM [inhibitor, single point] |  |
| Cc1ccc(S(=O)(=O)NCCC(=O)Nc2nnc(C3CC3)s2)cc1C | inactive |  |
| CC(C)Nc1nc(NC(C)C)nc(SCCOC(=O)Nc2ccc(Cl)cc2Cl)n1 | inconclusive: 8.91 µM [inhibitor, single point] |  |
| Cc1cc2c(cc1C)CSC(c1c(O)ccc3ccccc13)SC2 | inconclusive: 0.562 µM [inhibitor, full curve, poor fit] |  |
| Cn1nc(C(F)(F)F)c(C#N)c1N1CCN(c2ccccn2)CC1 | inactive |  |
| CC(=O)Nc1cccc(NC(=O)CSc2ncc(-c3ccccc3)[nH]2)c1 | inconclusive: 6.31 µM [activator, partial curve] |  |
| O=C(c1ccncc1)N1C2C=CC(C2)C1(C(F)(F)F)C(F)(F)F (centres undefined) | inconclusive: 1.12 µM [inhibitor, single point] |  |
| COC(=O)C1=C(C)NC(C)=C(C(=O)OC)C1c1ccc(-c2cccc(Cl)c2Cl)o1 | inconclusive: 5.62 µM [inhibitor, single point] |  |
| O=C(NCCCN1CCOCC1)c1ccc(-n2nc(C(F)(F)F)cc2-c2cccs2)cc1 | inconclusive: 5.01 µM [inhibitor, single point] |  |
| CCN(CC)S(=O)(=O)c1ccc(C(=O)Nc2nnc(CSC)o2)cc1 | inconclusive: 35.5 µM [inhibitor, single point] |  |
| CC1CCCCN1CC(=O)Nc1ccc(N2CCCCCC2)cc1 (centres undefined) |  | inactive: -6.48% [at 9.22 µM] |
| Cc1ccc(-n2c(O)c(/C=N/NC(=O)C3COc4ccccc4O3)c3ccccc3c2=O)cc1 (centres undefined) | inconclusive: 17.8 µM [inhibitor, single point] |  |
| CCOc1cc2[nH]c(=O)n(Cc3ccc(C(=O)NCCCN4CCC(C)CC4)cc3)c(=O)c2cc1OCC | inconclusive: 6.31 µM [inhibitor, single point] |  |
| CN1CC2([N+](=O)[O-])CC=C(OCCO)C([N+](=O)[O-])(C1)C2 (centres undefined) | inactive |  |

| Structure (SMILES) | Potency | activity change, negative = inhibition |
| --- | --- | --- |
| Cn1cccc1Cc1nnc(SCC(=O)N2CCCC2)n1CCc1ccccc1 | inactive |  |
| COc1cccc(-c2cc(C(=O)N3CC4(C)CC3CC(C)(C)C4)no2)c1 (centres undefined) | inconclusive: 14.1 µM [inhibitor, single point] |  |
| C[C@@H]1CN(CCCn2c3ccccc3c3ccccc32)C[C@H](C)N1 | inconclusive: 35.5 µM [inhibitor, single point] |  |
| CCOC(=O)c1cn(-c2ccc(F)c(F)c2)c2c(F)c(F)c(F)c(F)c2c1=O | inconclusive: 5.62 µM [inhibitor, single point] |  |
| CCn1c(Cl)c(C=O)s/c1=N\S(=O)(=O)c1ccccc1 | active: 1.41 µM |  |
| Cc1ccc(C)c(CSc2ncccc2C(=O)O)c1 | inconclusive: 35.5 µM [activator, single point] |  |
| O=C(NC1CCCC1)C(c1ccncc1)N(Cc1cccs1)C(=O)c1csnn1 (centres undefined) | inconclusive: 5.01 µM [activator, full curve] |  |
| CS(=O)(=O)c1nc(-c2ccco2)cc(C(F)(F)F)n1 | inconclusive: 35.5 µM [inhibitor, single point] |  |
| CCCC(=O)N1CCN(c2ccc(NC(=O)c3ccc(OCC)c([N+](=O)[O-])c3)cc2)CC1 | inactive |  |
| CCCCN1C(=O)/C(=C/C=C2\Oc3ccccc3N2CC)SC1=S | inconclusive: 3.16 µM [inhibitor, single point] |  |
| CC(=O)Nc1ccc(S(=O)(=O)N2CCSC2c2ccc(Cl)cc2)cc1 (centres undefined) | inconclusive: 14.1 µM [inhibitor, single point] |  |
| COc1ccc(Nc2ccncc2[N+](=O)[O-])cc1 | inconclusive: 10 µM [inhibitor, partial curve] |  |
| c1ccc(-c2nnc3sc(-c4csc5c4CCCC5)nn23)cc1 | inconclusive: 35.5 µM [inhibitor, single point] |  |
| Cc1ccccc1Nc1nc(N)nc(COC(=O)c2cccc(S(=O)(=O)N(C)C)c2)n1 | inconclusive: 5.62 µM [inhibitor, single point] |  |
| CN1C(=O)NC(c2ccccc2)(C(F)(F)F)S/C1=C(/C#N)c1nnc(N2CCOCC2)n1-c1ccccc1 (centres undefined) | inconclusive: 11.2 µM [activator, partial curve] |  |
| CCCS(=O)(=O)NCCc1cc2ccc(C)cc2[nH]c1=O | inactive |  |
| CCOc1cccc(-c2nnc3sc(C4CCCCC4)nn23)c1 | inconclusive: 15.8 µM [inhibitor, single point] |  |
| COc1ccc(CN(CCC(c2ccc(F)cc2)C2CCOC(C)(C)C2)C(=O)c2ccco2)cc1 (centres undefined) | inconclusive: 35.5 µM [inhibitor, single point] |  |
| COc1ccc(S(=O)(=O)NNC(=O)C2Cc3c(ccc4ccccc34)O2)cc1 (centres undefined) | inconclusive: 15.8 µM [inhibitor, single point] |  |
| Cc1cc(N2CCN(C(=O)c3ccco3)CC2)n2ncc(-c3ccccc3)c2n1 | inconclusive: 35.5 µM [inhibitor, single point] |  |
| N/C(Cc1nc(-c2ccc(Cl)cc2)cs1)=N/O |  | inactive: 15.2% [at 9.22 µM] |
| C=CCn1c(SCC(=O)NCCOC)nc2scc(-c3ccco3)c2c1=O | inconclusive: 35.5 µM [inhibitor, single point] |  |
| Cc1cccc(Cc2c(C)nc3c(C(=O)NCc4ccco4)cnn3c2C)c1 | inconclusive: 15.8 µM [inhibitor, single point] |  |

For convenience, part of the list above:

| Structure (SMILES) | Potency | activity change, negative = inhibition |
| --- | --- | --- |
| CC1(C)CC(=O)/C(=C\c2cccc([N+](=O)[O-])c2)C(C)(C)N1 | inconclusive: 35.5 µM [inhibitor, single point] |  |
| N#Cc1cc2c(nc1SCC(O)CS(=O)(=O)Cc1ccc(Cl)cc1)CCCC2 (centres undefined) | inconclusive: 17.8 µM [inhibitor, single point] |  |
